Experimental data taken from paper PMC8549169.
These are yes or no findings as the source states them, for the method shown. Binding seen in cells or lysates may run through a third protein. Some results given as binding are weak or reduced against the parent protein; the word gives no strength.

Protein sequences, listed by entry. Tags and fused reporters are not part of them. Lines headed by an entry give the natural chain unless they say otherwise; changes in a name come on top. Residues count along the entry.
UniProt O15550: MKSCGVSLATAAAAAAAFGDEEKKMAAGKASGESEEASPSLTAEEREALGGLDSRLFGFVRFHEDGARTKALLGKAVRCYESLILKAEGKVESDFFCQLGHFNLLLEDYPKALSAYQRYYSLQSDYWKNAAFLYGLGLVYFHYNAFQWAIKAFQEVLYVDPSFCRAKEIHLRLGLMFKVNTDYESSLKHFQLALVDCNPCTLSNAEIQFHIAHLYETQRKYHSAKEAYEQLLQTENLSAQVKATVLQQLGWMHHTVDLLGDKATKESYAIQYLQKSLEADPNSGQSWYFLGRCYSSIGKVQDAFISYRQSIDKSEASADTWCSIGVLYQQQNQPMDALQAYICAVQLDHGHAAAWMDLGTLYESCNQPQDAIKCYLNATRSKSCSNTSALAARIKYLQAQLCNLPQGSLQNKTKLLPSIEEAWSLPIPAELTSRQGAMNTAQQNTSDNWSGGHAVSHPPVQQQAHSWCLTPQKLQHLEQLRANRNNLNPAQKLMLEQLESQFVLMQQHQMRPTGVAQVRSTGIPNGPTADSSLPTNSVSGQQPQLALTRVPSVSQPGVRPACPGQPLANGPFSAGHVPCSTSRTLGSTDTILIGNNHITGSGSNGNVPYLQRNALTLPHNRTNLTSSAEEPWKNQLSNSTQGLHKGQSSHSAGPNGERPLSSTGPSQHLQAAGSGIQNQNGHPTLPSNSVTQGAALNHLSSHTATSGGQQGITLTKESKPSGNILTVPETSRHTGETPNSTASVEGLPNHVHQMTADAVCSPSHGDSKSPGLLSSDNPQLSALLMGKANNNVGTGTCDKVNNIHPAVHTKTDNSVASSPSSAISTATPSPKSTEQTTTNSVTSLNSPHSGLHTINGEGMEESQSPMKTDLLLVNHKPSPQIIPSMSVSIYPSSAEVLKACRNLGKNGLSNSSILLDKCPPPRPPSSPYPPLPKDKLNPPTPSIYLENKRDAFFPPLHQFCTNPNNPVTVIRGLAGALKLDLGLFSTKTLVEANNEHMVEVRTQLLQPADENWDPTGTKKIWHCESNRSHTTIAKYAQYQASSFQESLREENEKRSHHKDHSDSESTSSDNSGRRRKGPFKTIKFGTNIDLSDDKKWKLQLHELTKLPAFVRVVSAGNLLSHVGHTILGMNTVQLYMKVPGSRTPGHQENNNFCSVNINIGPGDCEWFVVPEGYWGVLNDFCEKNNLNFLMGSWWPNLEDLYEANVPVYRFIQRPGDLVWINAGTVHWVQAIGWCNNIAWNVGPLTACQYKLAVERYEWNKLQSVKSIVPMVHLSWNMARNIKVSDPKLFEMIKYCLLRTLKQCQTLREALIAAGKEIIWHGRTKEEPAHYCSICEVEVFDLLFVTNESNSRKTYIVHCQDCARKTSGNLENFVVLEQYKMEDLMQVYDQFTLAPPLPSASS
eGFP-KDM6A TPR: residues 1-390 of O15550
eGFP-KDM6A JmjC: residues 886-1401 of O15550
UniProt P06748: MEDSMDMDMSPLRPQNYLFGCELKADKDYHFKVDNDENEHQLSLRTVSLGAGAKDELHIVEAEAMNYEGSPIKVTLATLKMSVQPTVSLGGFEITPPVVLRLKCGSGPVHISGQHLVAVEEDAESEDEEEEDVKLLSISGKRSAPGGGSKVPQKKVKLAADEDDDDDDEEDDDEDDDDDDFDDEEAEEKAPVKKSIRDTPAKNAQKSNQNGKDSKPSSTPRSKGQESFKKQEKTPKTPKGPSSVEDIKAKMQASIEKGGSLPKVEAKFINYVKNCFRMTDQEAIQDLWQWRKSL
UniProt Q15291: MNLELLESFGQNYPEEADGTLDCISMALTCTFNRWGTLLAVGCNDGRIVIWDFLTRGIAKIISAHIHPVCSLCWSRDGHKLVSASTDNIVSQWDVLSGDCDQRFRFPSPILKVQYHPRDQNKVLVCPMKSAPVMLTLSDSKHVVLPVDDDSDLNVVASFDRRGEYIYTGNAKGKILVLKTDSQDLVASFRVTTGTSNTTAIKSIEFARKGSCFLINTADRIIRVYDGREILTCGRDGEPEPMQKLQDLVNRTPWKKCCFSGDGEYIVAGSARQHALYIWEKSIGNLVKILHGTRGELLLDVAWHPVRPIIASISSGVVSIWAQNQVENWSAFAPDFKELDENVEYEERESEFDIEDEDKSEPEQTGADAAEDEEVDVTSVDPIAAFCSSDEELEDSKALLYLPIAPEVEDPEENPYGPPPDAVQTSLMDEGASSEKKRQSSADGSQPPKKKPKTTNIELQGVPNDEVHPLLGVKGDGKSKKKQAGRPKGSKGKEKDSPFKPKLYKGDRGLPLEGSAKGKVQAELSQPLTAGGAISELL

Assays:
Test in all cases: co-IP; eGFP-KDM6A variants or eGFP captured on GFP-trap dynabeads from lysates of transiently transfected SW-1710 and T-24 cells (48 h post transfection), 1 h at 4 °C, SDS-free RIPA like buffer (50 mM Tris-HCl pH 7.5, 0.3% CHAPS, 150 mM sodium chloride), washed three times; Western blot for endogenous RBBP5, NPM1, WDR5
eGFP-KDM6A D336G (human) = eGFP-KDM6A D336G (human) (UniProt O15550)
eGFP-KDM6A TPR (human) = eGFP-KDM6A TPR (human) (UniProt O15550)
eGFP-KDM6A JmjC (human) = eGFP-KDM6A JmjC (human) (UniProt O15550)
eGFP-KDM6A T726K (human) = eGFP-KDM6A T726K (human) (UniProt O15550)
[1] = molecular target: eGFP-KDM6A wildtype (human) (UniProt O15550)

For “Nucleophosmin (from UniProt P06748 1-294)”, the binding (eGFP-KDM6A D336G (human)) was “no binding”, the binding (eGFP-KDM6A TPR (human)) was “no binding” and the binding (eGFP-KDM6A JmjC (human)) was “no binding”. For the same substance, the binding (eGFP-KDM6A T726K (human)) was “binds”.

For RBBP5 (from UniProt Q15291 1-538), the binding (eGFP-KDM6A D336G (human)) was “binds”, the binding (eGFP-KDM6A TPR (human)) was “binds” and the binding (eGFP-KDM6A JmjC (human)) was “no binding”. The binding (eGFP-KDM6A T726K (human)) was “binds” and the binding [1] was “binds”.
